The list shows only some results of the screen, not a fair sample: it gathers tests that were run many times, whatever their T/C, doses with no T/C, and many T/C values between a quarter and a half above the control. Other doses and runs of a compound stand elsewhere. T/C: endpoint of the treated group in % of that of the vehicle group. Some entries give survivors of the animals treated and no T/C: the source files T/C as zero there, which appears to mark a toxic dose or a test without result, not a measured value. Some doses without a T/C left all or most animals alive at the check, yet need not have been tolerated: the source hardly ever lists a survival T/C far under the control, and the zero likely stands for such cases as well. Counts of survivors are from the toxicity check (mostly the fifth day) where no day follows; animals may have died later. Schedule codes are those of the source, read here as Q, the interval in days (D) or hours (H), X, the number of doses. For survival time, this PubChem deposit counts one and a half times the control or more as active, and values a quarter to a half above the control carry no call in these data; other NCI protocols may use other cut-offs. Some T/C values are followed by the survivors on the day toxicity was checked, most often the fifth; without a count, all were alive then. Some entries hold several experiments; the results are listed from low to high. Some schedule codes hold Z or #, which are not explained here.

The test deals with L1210 leukemia ip in BDF1 mice, survival T/C. The test is described as follows: NCI In Vivo Anticancer Drug Screen. Data for tumor model L1210 Leukemia (intraperitoneal) in B6D2F1 (BDF1) mice. The note with it: higher T/C = longer survival.

For the molecule `COC(=O)C[C@](O)(CCCC(C)(C)O)C(=O)O[C@@H]1C(OC)=C[C@]23CCCN2CCc2cc4c(cc2[C@H]13)OCO4`, the T/C by setting is: (T/C endpoint: mean survival time, dose: 0.5 mg/kg/injection, schedule: Q01DX009 (ip), vehicle: saline) 126 % of control; (T/C endpoint: mean survival time, dose: 0.5 mg/kg/injection, schedule: Q01DX009 (ip), vehicle: water) 116, 120, 123, 126 % of control; (T/C endpoint: mean survival time, dose: 1.0 mg/kg/injection, schedule: Q01DX009 (ip), vehicle: acid diluted with saline) 130 % of control; (T/C endpoint: mean survival time, dose: 1.0 mg/kg/injection, schedule: Q01DX009 (ip), vehicle: saline) 134 % of control; (T/C endpoint: mean survival time, dose: 1.0 mg/kg/injection, schedule: Q01DX009 (ip), vehicle: water) 124, 131, 140, 142 % of control; (T/C endpoint: mean survival time, dose: 2.0 mg/kg/injection, schedule: Q01DX009 (ip), vehicle: saline) 138 % of control. For the same molecule, the T/C is 101, 113, 117 [9 of 10 alive], 140 % of control (T/C endpoint: mean survival time, dose: 2.0 mg/kg/injection, schedule: Q01DX009 (ip), vehicle: water); 138 % of control (T/C endpoint: mean survival time, dose: 2.0 mg/kg/injection, schedule: Q01DX009 (sc), vehicle: acid diluted with saline); 127 % of control (T/C endpoint: mean survival time, dose: 2.0 mg/kg/injection, schedule: Q04DX003 (ip), vehicle: acid diluted with saline); 130 % of control (T/C endpoint: mean survival time, dose: 250.0 micrograms/kg/injection, schedule: Q03HX024 (ip), vehicle: acid diluted with saline); 136 % of control (T/C endpoint: mean survival time, dose: 500.0 micrograms/kg/injection, schedule: Q03HX024 (ip), vehicle: acid diluted with saline). The survivor count runs as follows: (T/C endpoint: mean survival time, dose: 2.0 mg/kg/injection, schedule: Q03HX008 (ip), vehicle: acid diluted with saline) 0 of 10; (T/C endpoint: mean survival time, dose: 2.0 mg/kg/injection, schedule: Q03HX016 (ip), vehicle: acid diluted with saline) 0 of 10; (T/C endpoint: mean survival time, dose: 4.0 mg/kg/injection, schedule: Q01DX009 (ip), vehicle: saline) 4 of 10; (T/C endpoint: mean survival time, dose: 4.0 mg/kg/injection, schedule: Q01DX009 (ip), vehicle: water) 4 of 10; (T/C endpoint: mean survival time, dose: 4.0 mg/kg/injection, schedule: Q01DX009 (oral), vehicle: saline) 6 of 10; (T/C endpoint: mean survival time, dose: 4.0 mg/kg/injection, schedule: Q01DX009 (sc), vehicle: saline) 5 of 10. In addition, the survivor count by setting is: (T/C endpoint: mean survival time, dose: 8.0 mg/kg/injection, schedule: Q01DX001 (ip), vehicle: acid diluted with saline) 2 of 10; (T/C endpoint: mean survival time, dose: 8.0 mg/kg/injection, schedule: Q01DX001 (oral), vehicle: acid diluted with saline) 6 of 10; (T/C endpoint: mean survival time, dose: 8.0 mg/kg/injection, schedule: Q01DX001 (sc), vehicle: acid diluted with saline) 5 of 10; (T/C endpoint: mean survival time, dose: 8.0 mg/kg/injection, schedule: Q01DX009 (ip), vehicle: saline) 0 of 10; (T/C endpoint: mean survival time, dose: 8.0 mg/kg/injection, schedule: Q01DX009 (ip), vehicle: water) 0 of 10; (T/C endpoint: mean survival time, dose: 8.0 mg/kg/injection, schedule: Q01DX009 (oral), vehicle: acid diluted with saline) 0 of 10. The survivor count is 0 of 10 (T/C endpoint: mean survival time, dose: 8.0 mg/kg/injection, schedule: Q01DX009 (oral), vehicle: saline); 0 of 10 (T/C endpoint: mean survival time, dose: 8.0 mg/kg/injection, schedule: Q01DX009 (sc), vehicle: saline); 3 of 10 (T/C endpoint: mean survival time, dose: 8.0 mg/kg/injection, schedule: Q08DX002 (ip), vehicle: acid diluted with saline); 1 of 10 (T/C endpoint: mean survival time, dose: 16.0 mg/kg/injection, schedule: Q01DX001 (ip), vehicle: acid diluted with saline); 0 of 10 (T/C endpoint: mean survival time, dose: 16.0 mg/kg/injection, schedule: Q01DX001 (iv), vehicle: acid diluted with saline); 0 of 10 (T/C endpoint: mean survival time, dose: 16.0 mg/kg/injection, schedule: Q01DX001 (oral), vehicle: acid diluted with saline). The survivor count is, setting by setting: (T/C endpoint: mean survival time, dose: 16.0 mg/kg/injection, schedule: Q01DX001 (sc), vehicle: acid diluted with saline) 0 of 10; (T/C endpoint: mean survival time, dose: 16.0 mg/kg/injection, schedule: Q08DX002 (ip), vehicle: acid diluted with saline) 0 of 10; (T/C endpoint: mean survival time, dose: 32.0 mg/kg/injection, schedule: Q01DX001 (oral), vehicle: acid diluted with saline) 0 of 10; (T/C endpoint: mean survival time, dose: 2000.0 micrograms/kg/injection, schedule: Q03HX024 (ip), vehicle: acid diluted with saline) 0 of 10; (T/C endpoint: median survival time, dose: 8.0 mg/kg/injection, schedule: Q04DX003 (ip), vehicle: saline) 1 of 8; (T/C endpoint: median survival time, dose: 16.0 mg/kg/injection, schedule: Q04DX003 (ip), vehicle: saline) 0 of 8.
For the molecule `CCCCCCCCCCCCn1cnc2ncnc(Cl)c21`, under “T/C endpoint: mean survival time, dose: 200.0 mg/kg/injection, schedule: Q01DX005 (ip), vehicle: other”, the survivor count is reported as 4 of 6.
As for `Cc1nc(N)sc1CCCl`, the survivor count is given as 3 of 6 (T/C endpoint: mean survival time, dose: 80.0 mg/kg/injection, schedule: Q01DX015 (ip), vehicle: carboxymethylcellulose (CMC)) and 0 of 6 (T/C endpoint: mean survival time, dose: 120.0 mg/kg/injection, schedule: Q01DX015 (ip), vehicle: carboxymethylcellulose (CMC)).
Consider `NNP(=O)(Oc1ccccc1)Oc1ccccc1`, for which the survivor count (T/C endpoint: mean survival time, dose: 200.0 mg/kg/injection, schedule: Q01DX009 (ip), vehicle: saline) is given as 6 of 6.
With `N#CCCNC(Cc1ccc(O)cc1)C(=O)O` (configuration not stated), the survivor count (T/C endpoint: mean survival time, dose: 200.0 mg/kg/injection, schedule: Q04DX003 (ip), vehicle: Klucel (hydroxypropylcellulose) (HPC)) is 1 of 6 and the survivor count (T/C endpoint: mean survival time, dose: 400.0 mg/kg/injection, schedule: Q04DX003 (ip), vehicle: Klucel (hydroxypropylcellulose) (HPC)) is 1 of 6.
Consider `O=C(Nc1ccc(NC(=O)Nc2cccc(C3=NCCN3)c2)cc1)Nc1cccc(C2=NCCN2)c1`, for which the T/C is 145 % of control (T/C endpoint: mean survival time, dose: 30.0 mg/kg/injection, schedule: Q01DX Z (ip), vehicle: carboxymethylcellulose (CMC)); 137 % of control [4 of 6 alive] (T/C endpoint: mean survival time, dose: 60.0 mg/kg/injection, schedule: Q01DX006 (iv), vehicle: saline); 125 % of control (T/C endpoint: mean survival time, dose: 60.0 mg/kg/injection, schedule: Q01DX Z (ip), vehicle: carboxymethylcellulose (CMC)); 142 % of control (T/C endpoint: mean survival time, dose: 74.0 mg/kg/injection, schedule: Q01DX Z (ip), vehicle: carboxymethylcellulose (CMC)); 141 % of control (T/C endpoint: mean survival time, dose: 110.0 mg/kg/injection, schedule: Q07DX Z (ip), vehicle: saline); 132 % of control (T/C endpoint: mean survival time, dose: 120.0 mg/kg/injection, schedule: Q01DX Z (ip), vehicle: carboxymethylcellulose (CMC)). The T/C was 147 % of control (T/C endpoint: mean survival time, dose: 240.0 mg/kg/injection, schedule: Q01DX Z (im), vehicle: saline); 130 % of control (T/C endpoint: mean survival time, dose: 240.0 mg/kg/injection, schedule: Q01DX Z (ip), vehicle: carboxymethylcellulose (CMC)); 132 % of control (T/C endpoint: mean survival time, dose: 240.0 mg/kg/injection, schedule: Q01DX Z (sc), vehicle: carboxymethylcellulose (CMC)); 130 % of control (T/C endpoint: mean survival time, dose: 480.0 mg/kg/injection, schedule: Q01DX Z (sc), vehicle: carboxymethylcellulose (CMC)).
Turning to `Nc1nc(N)c2nc(CNc3ccc(S(=O)(=O)NC(CCC(=O)O)C(=O)O)cc3)cnc2n1` (configuration not stated), the T/C (T/C endpoint: mean survival time, dose: 100.0 mg/kg/injection, schedule: Q01DX009 (ip), vehicle: Klucel (hydroxypropylcellulose) (HPC)) was 127 % of control.
`Cc1ccc(N(CCO)CCO)cc1`: the survivor count reads like this: (T/C endpoint: mean survival time, dose: 200.0 mg/kg/injection, schedule: Q01DX001 (ip), vehicle: saline) 0 of 4; (T/C endpoint: mean survival time, dose: 400.0 mg/kg/injection, schedule: Q01DX001 (ip), vehicle: saline) 0 of 4.
As for `O=C(CCN1C(=O)c2ccccc2C1=O)c1ccc(O)cc1`, the survivor count runs as follows: (T/C endpoint: mean survival time, dose: 100.0 mg/kg/injection, schedule: Q01DX009 (ip), vehicle: saline with Tween-80) 3 of 6; (T/C endpoint: mean survival time, dose: 200.0 mg/kg/injection, schedule: Q01DX009 (ip), vehicle: saline with Tween-80) 4 of 6; (T/C endpoint: mean survival time, dose: 400.0 mg/kg/injection, schedule: Q01DX009 (ip), vehicle: saline with Tween-80) 1 of 6.

Values taken from PubChem BioAssay AID248 (DTP/NCI, 2004).
